# This list was built around the results that the source calls inconclusive (neither active nor inactive); the mix of calls is not that of the screen. A potency beside an inconclusive call is a rough fit, not a confirmed value. Active and inactive are the calls of the source. The calls were made as follows: active = hit-call score of the fitted dose curve at least 0.9, where 1 is the maximum; inconclusive = response in the unintended direction; inactive = score below 0.9.
# Protein sequences, listed by entry. Tags and fused reporters are not part of them. Lines headed by an entry give the natural chain unless they say otherwise; changes in a name come on top.
# UniProt Q14790: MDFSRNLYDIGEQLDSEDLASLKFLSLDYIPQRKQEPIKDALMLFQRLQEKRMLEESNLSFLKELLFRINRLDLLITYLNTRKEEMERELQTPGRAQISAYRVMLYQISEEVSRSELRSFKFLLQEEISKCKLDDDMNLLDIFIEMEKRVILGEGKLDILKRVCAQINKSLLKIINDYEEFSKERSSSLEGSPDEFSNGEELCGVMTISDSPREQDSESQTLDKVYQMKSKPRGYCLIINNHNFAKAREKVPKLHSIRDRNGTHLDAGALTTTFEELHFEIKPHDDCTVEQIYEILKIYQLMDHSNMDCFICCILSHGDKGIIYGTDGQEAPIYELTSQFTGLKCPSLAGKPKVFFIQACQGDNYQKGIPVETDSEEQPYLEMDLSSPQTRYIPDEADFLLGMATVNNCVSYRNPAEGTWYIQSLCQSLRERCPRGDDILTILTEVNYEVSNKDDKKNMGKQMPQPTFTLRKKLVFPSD
# Target: CDK2 (gene 1017) (UniProt P24941)
# Assay: NVS_ENZ_hCDK2: NovaScreen (NVS) Enzymatic Assay for human Cyclin-Cependent Kinase 2 (CDK2) (AID 2283144)
# Summary of the method: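 Cell-free recombinant human CDK2 with fluorescent substrate, product separated by electrophoretic mobility shift; 1 hr read. Primary screen at 25 uM in duplicate, actives retested in concentration-response up to 50 uM; loss of signal versus DMSO.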
row,SMILES,AC50
1,COCC(C)OCC(C)O (stereo not drawn),inconclusive: 25 µM
2,Cc1[nH]nc2c1N=C(c1ccccc1Cl)c1cc([N+](=O)[O-])ccc1N2,active: 0.0067 µM
3,COC(=O)c1ccccc1S(=O)(=O)NC(=O)Nc1nc(OC(F)F)cc(OC(F)F)n1,inconclusive: 25 µM

# Target: human Caspase 8 (CASP8), CASP8 (gene 841) (UniProt Q14790)
# Assay: NVS_ENZ_hCASP8: NovaScreen (NVS) Enzymatic Assay for human Caspase 8 (CASP8) (AID 2283146)
# Summary of the method: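 E. coli-expressed enzyme was used in a cell-free fluorogenic substrate assay read 1 h after dosing. Loss of signal was scored relative to DMSO, and the primary screen was run in duplicate at 25 uM.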
row,SMILES,AC50
1,O=S(=O)(O)c1ccc(N=Nc2c(O)ccc3cc(S(=O)(=O)O)ccc23)cc1,inconclusive: 0.083 µM
2,COc1cc(-c2nc(NC(=O)c3cc4cc(C)cc(C)c4n3CC(=O)O)sc2CCC2CCCCC2)c(OC)cc1Cl,inconclusive: 33.8 µM
3,O=C(OC[C@H]1O[C@@H](OC(=O)c2cc(O)c(O)c(OC(=O)c3cc(O)c(O)c(O)c3)c2)[C@H](OC(=O)c2cc(O)c(O)c(OC(=O)c3cc(O)c(O)c(O)c3)c2)[C@@H](OC(=O)c2cc(O)c(O)c(OC(=O)c3cc(O)c(O)c(O)c3)c2)[C@@H]1OC(=O)c1cc(O)c(O)c(OC(=O)c2cc(O)c(O)c(O)c2)c1)c1cc(O)c(O)c(OC(=O)c2cc(O)c(O)c(O)c2)c1,inconclusive: 11.9 µM
4,O=C(OCCOCCOC(=O)c1ccccc1)c1ccccc1,inconclusive: 25 µM
5,O=C1c2c(O)cccc2Cc2cccc(O)c21,active: 7.92 µM

# From PubChem BioAssay (EPA / NIEHS)
